SMILES strings stand for the structures. Among all 1,300 compounds or so, about 40 (3%) were called active.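 How the source made its calls: active means inhibition above that campaign's mean inhibition plus 3 SD (cut at about 0.46% in these data); inactive means the rest.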 The list shows a part of the results, in another mix than the full data.

The chains behind the UniProt entries cited, without tags or fusion partners.
UniProt P62593, whole entry, looked up: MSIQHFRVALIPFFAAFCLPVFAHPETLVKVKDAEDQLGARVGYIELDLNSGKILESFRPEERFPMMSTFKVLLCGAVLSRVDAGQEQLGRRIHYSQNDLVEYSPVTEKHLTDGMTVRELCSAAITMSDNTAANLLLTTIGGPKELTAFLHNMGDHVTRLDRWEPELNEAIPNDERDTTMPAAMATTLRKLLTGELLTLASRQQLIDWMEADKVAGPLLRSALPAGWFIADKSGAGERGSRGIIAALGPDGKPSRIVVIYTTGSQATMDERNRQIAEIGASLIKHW

In the test the target is Beta-lactamase TEM (Escherichia coli) (UniProt P62593). Nature of the test: TEM-1 serine beta-lactamase inhibitors, counter-screen for VIM-2 inhibitor project, biochemical, epi-absorbance, HTS (AID 1866).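 Further: 0% = TEM-1 with DMSO and 100% = TEM-1 with 100 µM potassium clavulanate.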 As to conditions: Purified TEM-1, nitrocefin hydrolysis, epi-absorbance fluorescence; at 5.6 µM; stronger effect = higher value.
Take `Cc1cc(=O)oc2c(C)c(OCC(=O)N3CCN(Cc4ccc5c(c4)OCO5)CC3)ccc12`: the inhibition is inactive: -8.14%.

With `Cc1cc(OCc2cc(C(=O)O)oc2C)c2c3c(c(=O)oc2c1)CCCC3`, the inhibition is inactive: -10.4%.

In general, inhibition refers to the relative decrease from the control value, in per cent.

(Values after PubChem BioAssay AID1866 (The Scripps Research Institute Molecular Screening Center, 2009).)
